Usually AC50 stands for the midpoint of the concentration-response curve, whichever way the signal moves. The low end stands for activity at low concentration, the high end for activity only at high concentration.

This passage reports cell number change and AC50 results from PubChem BioAssay AID2685 (National Center for Advancing Translational Sciences (NCATS), 2010).

Some of the results follow. Further columns of the screen follow, without active or inactive calls. Most of these compounds were active or inconclusive in the main read-out, so they are no random draw. Potencies come from curve fits of mixed quality, noted in brackets.

The nature of the test: qHTS Assay for Lipid Storage Modulators in Drosophila S3 Cells.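 On cell number change: cells counted by Cell Tracker Red CMTPX staining in the red channel.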 As to conditions: BODIPY lipid droplet fluorescence, 18-24 h; for cell number change: measured here: cell count max response, cells fed with added oleic acid. The method, boiled down: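 Drosophila S3 cells loaded with oleic acid (400 uM, as added) and compounds at several concentrations; lipid droplets imaged by 488-nm laser-scanning cytometry, 500–530 nm intensity and object ratio to cell channel. Percent activity normalized to 20 uM Triacsin C.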
(Quantitative high-throughput screening tests each substance at several concentrations.)

The mark [1] stands for this setting: measured here: lipid fluorescence (Fed channel) AC50, cells fed with added oleic acid.
[2] abbreviates: measured here: cell number channel AC50, cells fed with added oleic acid.

With `CCCN(CC(=O)Nc1ccc(Cl)cc1Cl)C(=O)CC(NC(C)=O)c1ccccc1` (stereo unspecified), the cell number change is -5.95%. Moreover, the AC50 under setting [1] was 0.58 µM [falling, single point].

On to `Cn1c(=O)c2ccccc2n(Cc2ccccc2F)c1=O`, for which the cell number change was -11.8%. In addition, the AC50 under setting [1] is 7.31 µM [rising, partial curve].

Consider `O=C(CCN1C(=O)/C(=C/c2ccc(F)cc2)SC1=S)NC1C=CS(=O)(=O)C1` (stereo unspecified), for which the AC50 under setting [1] is 0.116 µM [rising, single point].

Turning to `CCC[n+]1c(C)sc2c3c(ccc21)CCCC3`, the cell number change was -43.4%. Besides, under setting [2], the AC50 was 6.51 µM [falling, partial curve, poor fit]. In addition, under setting [1], the AC50 was 2.91 µM [falling, single point].

Take `O=C(N/N=C/c1ccnc2ccccc12)c1ccccc1O`: the cell number change was -27.7%.

With `O=C(CN1C(=O)C2C3C=CC(C3)C2C1=O)NCCc1ccccc1` (stereo unspecified), the cell number change was found to be 76.5%.

Take `COc1ccc(/C=N/NC(=O)Cn2cnc3ccccc3c2=O)cc1`: the cell number change was -3.45%. For the same compound, under setting [1], the AC50 was 5.8 µM [falling, partial curve].

Consider `COc1ccc(OC)c(C(=O)COC(=O)c2[nH]c(C)c(C(C)=O)c2C)c1`, for which the cell number change is -22.9%.

In the case of `CCCC(=O)Oc1ccc2c(C)cc(=O)oc2c1`, the cell number change was -10.4%. Besides, the AC50 under setting [1] is 2.59 µM [falling, partial curve].

As for `Cn1c(CCNC(=O)c2ccco2)nc2cc([N+](=O)[O-])ccc21`, the cell number change worked out at 6.45%.

Turning to `COc1ccc(C(=O)CCC(=O)N2CCN(c3ccc(C)cc3)C(C)C2)cc1` (stereo unspecified), the cell number change stood at 33.1%. Also, under setting [2], the AC50 was 18.4 µM [rising, single point].

Consider `Cc1ccc(NS(=O)(=O)c2ccc3c(c2)NC(=O)CCS3)cc1F`, for which the cell number change was -3.44%. Besides, the AC50 under setting [1] was 29.1 µM [rising, single point].

For `O=C(O)CCN1C(=O)CC(N2C(=O)/C(=C/c3ccc(Cl)cc3)SC2=S)C1=O` (stereo unspecified), the cell number change is -4.56%.

For `O=C(CNCCO)Nc1ccc(F)c(Cl)c1`, the cell number change is -21%. Besides, under setting [1], the AC50 is 1.03 µM [falling, partial curve].

For the compound `COc1cc2ncnc(NCc3ccccc3Cl)c2cc1OC`, the cell number change was -45%. For the same compound, the AC50 under setting [2] is 4.61 µM [falling, full curve, poor fit]. For the same compound, under setting [1], the AC50 is 4.61 µM [falling, full curve].

For the compound `FC(F)(F)c1cnc(Nc2ccc(N3CCOCC3)cc2)c(Cl)c1`, the cell number change is -8.41%. Further, the half-maximal activity concentration (AC50) under setting [1] was 2.91 µM [falling, partial curve].

Regarding `Cc1ccc(S(=O)(=O)NCC(=O)OCc2ccccc2)cc1`, the cell number change turned out to be 13.4%.

As to `O=C(O)CSc1ccc2nnc(-c3cccnc3)n2n1`, the AC50 is, setting by setting: under setting [2], 0.517 µM [rising, partial curve, poor fit]; under setting [1], 0.651 µM [rising, partial curve].

As to `Cc1cccc(N2C(=O)CS/C2=N\NC(=O)c2ccc(Br)cc2)c1C`, the cell number change is 29.8%. The AC50 under setting [1] is 29.1 µM [rising, single point].

On to `CN(C)c1ccc(CN(Cc2ccco2)C(=O)c2ccco2)cc1`, for which the cell number change is -4.59%. For the same compound, the AC50 under setting [1] was 0.00461 µM [falling, full curve, poor fit].

With `CCc1cc2c(cc3c(=O)n(CC(=O)N4CCN(C)CC4)ncn32)s1`, the cell number change was -2.06%. In addition, under setting [1], the AC50 is 4.11 µM [falling, single point].

In the case of `COc1ccccc1-n1cc(C(=O)NCC(=O)NCc2ccc(F)cc2)c2ccccc2c1=O`, the AC50 under setting [1] is 2.91 µM [rising, single point].

As to `Cc1nc(C(=O)N(C)C)nn1-c1cc(Cl)ccc1Cl`, the cell number change was -64.7%. In addition, the AC50 under setting [2] is 20.6 µM [falling, partial curve, poor fit]. Besides, the AC50 under setting [1] is 20.6 µM [falling, single point].

Regarding `COc1cccc(C(CNc2ccc(S(=O)(=O)N3CCN(C)CC3)cc2[N+](=O)[O-])N(C)C)c1` (stereo unspecified), the cell number change is -19.1%. Further, under setting [1], the AC50 was 6.51 µM [rising, single point].

In the case of `COc1ccccc1Nc1nc(N)nc(CN2CCN(c3ccccc3F)CC2)n1`, the concentration at half-maximal activity (AC50) reads like this: under setting [2], 6.51 µM [rising, single point]; under setting [1], 6.51 µM [rising, single point].

`Cc1ccc(C(=O)OCc2cn(-c3ccccc3)nn2)cc1`: the cell number change worked out at 30.9%. For the same compound, under setting [2], the AC50 is 0.0164 µM [rising, full curve, poor fit].

Regarding `CCC(c1nnnn1Cc1ccco1)N1CCC(C(N)=O)CC1` (stereo unspecified), under setting [1], the AC50 is 29.1 µM [falling, single point].

As to `COc1cccc(/C=C/C(=O)OCC(=O)Nc2ccc(Cl)c(S(=O)(=O)N(C)C)c2)c1OC`, the cell number change is 26.4%. In addition, under setting [1], the AC50 is 0.58 µM [rising, single point].

Turning to `CCNc1nc(SC(C)C(=O)Nc2ccccc2)nc(N2CCOCC2)n1` (stereo unspecified), the cell number change was -29.3%. Further, under setting [1], the AC50 is 16.4 µM [falling, single point].

In the case of `COc1cccc(CN(CC2CCCO2)C(=O)c2cc3ccccc3oc2=O)c1` (stereo unspecified), the cell number change worked out at 16.3%.

For the compound `CN1CCN(S(=O)(=O)c2ccc3c(c2)NC(=O)CS3)CC1`, the cell number change was -22.1%. Under setting [1], the AC50 was 6.51 µM [falling, single point].

For `COc1cccc(-c2nc(NC(C)(C)C)c3ccccc3n2)c1O`, the cell number change is -30%. In addition, under setting [2], the AC50 was 10.3 µM [falling, partial curve]. Under setting [1], the AC50 is 0.00411 µM [rising, full curve, poor fit].

In the case of `O=C(CN1CCN(S(=O)(=O)c2ccc(Cl)cc2)CC1)NCC1(N2CCOCC2)CCCCC1`, the cell number change is -9.87%. Besides, the AC50 under setting [2] is 1.64 µM [rising, single point]. Further, the AC50 under setting [1] was 5.8 µM [falling, full curve, poor fit].

For `COc1ccccc1NS(=O)(=O)c1cccc(C(=O)NC2CCN(Cc3ccccc3)CC2)c1`, the cell number change was -32.8%. For the same compound, under setting [2], the AC50 is 5.8 µM [falling, partial curve, poor fit]. Further, the AC50 under setting [1] is 4.11 µM [falling, partial curve, poor fit].

In the case of `CC1CCN(CCCNC(=O)c2ccc(Cn3c(=S)[nH]c4ccc(Br)cc4c3=O)cc2)CC1`, the cell number change stood at 5.29%. Also, the AC50 under setting [2] was 2.59 µM [rising, single point].

On to `COc1ccc(S(=O)(=O)CCC(=O)N2CCN(c3ccc(F)cc3)CC2)cc1`, for which the cell number change was determined as 33%.

For `CCn1c(SCC(=O)Nc2ccc(NC(=O)c3ccco3)c(OC)c2)nc2ccccc2c1=O`, the cell number change was -32.2%.

In the case of `CCOC(=O)CNC(=O)CSc1nnc(SCC(=O)NCC(=O)OCC)s1`, the cell number change is -21.7%.

For `CC(C)(C)c1ccc(C(=O)NNC(=O)CCC(=O)Nc2ccccc2)cc1`, the cell number change worked out at 24.6%. The AC50 under setting [1] was 5.8 µM [rising, full curve, poor fit].

For `Cc1cccc(NC(=S)N/N=C/c2ccc([N+](=O)[O-])s2)c1`, the cell number change was -29.3%. Further, the AC50 under setting [1] is 16.4 µM [falling, partial curve].

For `CCC(C(=O)NCc1ccccc1OC)c1ccccc1` (stereo unspecified), the cell number change is 24.7%. Moreover, under setting [2], the AC50 is 3.26 µM [rising, partial curve]. In addition, the AC50 under setting [1] is 2.31 µM [rising, partial curve].

On to `COc1ccc(CN2CC(=O)N(c3cc(Cl)ccc3C)C2=S)cc1OC`, for which the cell number change was -16.9%. For the same compound, the AC50 under setting [1] was 29.1 µM [falling, single point].

With `CCC(CC)c1nnc(NC(=O)CCCN2C(=O)c3ccccc3C2=O)s1`, the cell number change was 36.9%. Further, under setting [2], the AC50 is 0.103 µM [rising, full curve, poor fit].

For `COn1c(SCC(=O)N(C)C)nc2ccccc2c1=O`, the cell number change is -7.6%.

In the case of `COc1ccc(CCNC(=O)CSc2nnc(NC(C)=O)s2)cc1OC`, the cell number change is -10.5%. For the same compound, under setting [2], the AC50 is 0.0058 µM [falling, full curve, poor fit].

As for `C=CCNC(=S)Nc1sc2c(c1C#N)CCCC2`, the cell number change came to 7.48%. For the same compound, the AC50 under setting [1] was 0.0461 µM [rising, single point].

With `O=S(=O)(Nc1cc(C(F)(F)F)ccc1N1CCOCC1)c1ccccc1`, the cell number change was determined as 21.8%. Besides, the AC50 under setting [2] was 3.26 µM [falling, single point]. In addition, under setting [1], the AC50 is 5.8 µM [falling, single point].

In the case of `CC1CCN(C(=O)CSc2nc3c(c(=O)n(C)c(=O)n3C)n2C)CC1`, the cell number change came out at 18.9%. Further, the AC50 under setting [1] is 6.51 µM [falling, single point].

As for `COc1ccccc1S(=O)Cc1ccc(C(=O)NC2CCCC2)o1` (stereo unspecified), the cell number change turned out to be 53.3%. Under setting [2], the AC50 was 1.46 µM [rising, full curve]. The AC50 under setting [1] is 1.46 µM [rising, partial curve].

Take `COCc1[nH]nc2c1C1(C(=O)Nc3ccc(F)cc31)C(C#N)=C(N)O2` (stereo unspecified): the cell number change turned out to be 28.2%. Besides, the AC50 under setting [1] was 0.13 µM [rising, full curve].

On to `Cc1cccc(C(=O)NCC(=O)OCc2nnc(-c3ccccc3)o2)c1`, for which the cell number change stood at 23.8%. Also, under setting [1], the AC50 was 16.4 µM [rising, single point].

Consider `CCOC(=O)CSC1=C(C#N)C(c2ccccc2Cl)C(C(=O)OC)C(=O)N1` (stereo unspecified), for which the cell number change was 8.99%. The AC50 under setting [1] was 0.0517 µM [rising, full curve, poor fit].

Regarding `CC(C)C[C@]1(c2ccccc2)ON(c2ccccc2C(F)(F)F)C1=O`, the cell number change was -82.3%. Besides, the AC50 under setting [2] is 29.1 µM [falling, single point]. In addition, the AC50 under setting [1] is 13 µM [falling, single point].

Consider `Cc1ccc(NC(=S)N/N=C2\CC(C)(C)Oc3ccc(O)cc32)cc1`, for which the cell number change is -28.6%. The AC50 under setting [1] is 29.1 µM [falling, single point].

`CCCCn1c(SCC(=O)N(CC)C2CCS(=O)(=O)C2)nnc1C(CC)N(C)C` (stereo unspecified): the cell number change is -42.1%. Further, the AC50 under setting [2] is 3.66 µM [falling, full curve]. The AC50 under setting [1] is 29.1 µM [falling, single point].

Consider `CCCc1cc(=O)oc2cc(C)cc(OCC(=O)Nc3ccccn3)c12`, for which the cell number change came out at 9.92%. Further, under setting [1], the AC50 was 2.31 µM [falling, partial curve].

Turning to `Cc1nc(N)nc(COc2ccccc2)n1`, the cell number change came out at 15.5%. For the same compound, the AC50 under setting [1] was 0.517 µM [rising, full curve].

As for `CSc1nc2ccc(Nc3nc(N4CCOCC4)nc(N4CCOCC4)n3)cc2s1`, the AC50 under setting [2] is 1.84 µM [rising, partial curve].

In the case of `CCN1C(=S)N[C@@H](c2cccc(C(F)(F)F)c2)C(C(=O)OC)=C1C`, the cell number change is -2.03%. The AC50 under setting [1] was 29.1 µM [falling, single point].

For `COc1cc(-c2nc(S(=O)(=O)c3ccc(Cl)cc3)c(N3CCOCC3)o2)cc(OC)c1OC`, the cell number change was 5.23%. Further, under setting [1], the AC50 was 0.731 µM [rising, single point].
